# Test results: the supplement of paper PMC10849652
# Sequences of proteins named here, by UniProt entry; tags and fusion partners are left off. A change or cut given only in a name is not applied to a line headed by its entry.
# UniProt Q03405, whole entry, looked up: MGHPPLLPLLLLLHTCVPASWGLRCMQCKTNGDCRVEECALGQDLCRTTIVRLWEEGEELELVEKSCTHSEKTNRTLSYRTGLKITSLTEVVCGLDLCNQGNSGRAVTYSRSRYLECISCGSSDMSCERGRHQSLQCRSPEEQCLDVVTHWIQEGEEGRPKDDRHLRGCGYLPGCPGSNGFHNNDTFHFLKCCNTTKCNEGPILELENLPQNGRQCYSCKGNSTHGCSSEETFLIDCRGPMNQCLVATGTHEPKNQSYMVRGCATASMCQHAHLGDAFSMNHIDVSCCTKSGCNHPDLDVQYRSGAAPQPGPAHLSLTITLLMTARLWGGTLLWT
# UniProt P36871: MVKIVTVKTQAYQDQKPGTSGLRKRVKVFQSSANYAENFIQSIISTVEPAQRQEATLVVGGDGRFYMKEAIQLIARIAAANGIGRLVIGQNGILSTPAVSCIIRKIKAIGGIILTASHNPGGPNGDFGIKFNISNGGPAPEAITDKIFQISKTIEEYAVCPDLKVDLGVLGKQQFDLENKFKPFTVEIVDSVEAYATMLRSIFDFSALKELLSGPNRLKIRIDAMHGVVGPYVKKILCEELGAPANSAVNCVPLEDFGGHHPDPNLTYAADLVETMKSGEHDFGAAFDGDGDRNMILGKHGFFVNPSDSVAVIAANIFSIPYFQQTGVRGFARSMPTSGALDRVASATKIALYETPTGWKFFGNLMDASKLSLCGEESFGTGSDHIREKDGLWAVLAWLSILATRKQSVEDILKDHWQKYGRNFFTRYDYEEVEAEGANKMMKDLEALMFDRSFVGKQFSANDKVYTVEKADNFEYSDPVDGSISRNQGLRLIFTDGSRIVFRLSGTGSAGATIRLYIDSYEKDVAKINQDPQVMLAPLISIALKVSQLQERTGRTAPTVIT
# UniProt Q9HB19: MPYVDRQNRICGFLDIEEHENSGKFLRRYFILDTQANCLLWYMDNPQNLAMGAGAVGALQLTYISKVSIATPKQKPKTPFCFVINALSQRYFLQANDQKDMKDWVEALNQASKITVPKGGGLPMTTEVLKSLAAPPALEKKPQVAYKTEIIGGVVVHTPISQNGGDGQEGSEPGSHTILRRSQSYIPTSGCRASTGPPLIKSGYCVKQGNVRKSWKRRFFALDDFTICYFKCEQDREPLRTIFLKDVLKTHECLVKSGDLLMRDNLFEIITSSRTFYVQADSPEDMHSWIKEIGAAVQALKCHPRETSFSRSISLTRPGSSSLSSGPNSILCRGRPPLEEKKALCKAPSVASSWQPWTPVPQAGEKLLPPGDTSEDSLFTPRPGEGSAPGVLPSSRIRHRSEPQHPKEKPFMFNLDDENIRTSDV
# UniProt Q9Y2B2: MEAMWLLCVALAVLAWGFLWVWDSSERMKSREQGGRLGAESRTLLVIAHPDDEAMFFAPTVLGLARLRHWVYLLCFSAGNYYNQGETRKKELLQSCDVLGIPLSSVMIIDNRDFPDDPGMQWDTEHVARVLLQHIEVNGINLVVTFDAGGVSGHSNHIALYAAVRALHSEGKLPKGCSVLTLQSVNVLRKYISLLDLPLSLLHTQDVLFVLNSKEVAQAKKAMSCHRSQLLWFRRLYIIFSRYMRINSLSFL
# UniProt Q9P1W9: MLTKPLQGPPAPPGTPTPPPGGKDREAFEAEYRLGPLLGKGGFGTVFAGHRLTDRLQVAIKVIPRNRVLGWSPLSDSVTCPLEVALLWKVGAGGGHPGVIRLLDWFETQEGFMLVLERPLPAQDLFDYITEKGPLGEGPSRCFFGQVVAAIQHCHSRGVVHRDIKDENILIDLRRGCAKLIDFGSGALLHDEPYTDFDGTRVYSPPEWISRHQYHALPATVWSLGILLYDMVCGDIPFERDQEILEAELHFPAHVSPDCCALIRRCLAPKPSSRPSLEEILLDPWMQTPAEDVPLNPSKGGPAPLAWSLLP
# UniProt Q53GA4: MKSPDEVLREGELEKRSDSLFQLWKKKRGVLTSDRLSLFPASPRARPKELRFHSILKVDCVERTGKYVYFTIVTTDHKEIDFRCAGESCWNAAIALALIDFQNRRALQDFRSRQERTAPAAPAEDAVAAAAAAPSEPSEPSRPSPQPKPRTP
# UniProt Q16816: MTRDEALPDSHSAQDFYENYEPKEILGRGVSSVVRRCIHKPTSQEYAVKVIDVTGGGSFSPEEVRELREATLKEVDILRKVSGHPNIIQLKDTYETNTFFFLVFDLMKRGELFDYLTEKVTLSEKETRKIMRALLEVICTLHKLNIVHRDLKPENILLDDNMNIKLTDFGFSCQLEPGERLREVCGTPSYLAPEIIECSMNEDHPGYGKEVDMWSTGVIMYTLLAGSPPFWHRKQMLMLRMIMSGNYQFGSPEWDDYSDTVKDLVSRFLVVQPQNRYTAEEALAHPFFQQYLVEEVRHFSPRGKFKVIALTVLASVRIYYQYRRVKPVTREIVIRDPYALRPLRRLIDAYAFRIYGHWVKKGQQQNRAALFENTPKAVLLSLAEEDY
# UniProt P07205: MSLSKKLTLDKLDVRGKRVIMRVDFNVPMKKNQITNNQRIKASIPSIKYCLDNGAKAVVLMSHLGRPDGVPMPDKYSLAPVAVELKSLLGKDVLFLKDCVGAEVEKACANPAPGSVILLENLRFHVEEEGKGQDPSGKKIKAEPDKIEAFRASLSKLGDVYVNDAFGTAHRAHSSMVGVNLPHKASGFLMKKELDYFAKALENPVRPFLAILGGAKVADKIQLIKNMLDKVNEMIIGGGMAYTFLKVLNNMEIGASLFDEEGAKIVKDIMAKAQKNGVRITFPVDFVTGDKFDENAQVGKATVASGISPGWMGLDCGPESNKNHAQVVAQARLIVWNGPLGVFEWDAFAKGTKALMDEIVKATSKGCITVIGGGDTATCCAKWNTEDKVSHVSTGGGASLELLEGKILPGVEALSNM
# PIGBOS1, A0A0B4J2F0, UniProt A0A0B4J2F0, whole entry, looked up: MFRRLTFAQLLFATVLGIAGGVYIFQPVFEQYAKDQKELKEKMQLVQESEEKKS
# UniProt O75167: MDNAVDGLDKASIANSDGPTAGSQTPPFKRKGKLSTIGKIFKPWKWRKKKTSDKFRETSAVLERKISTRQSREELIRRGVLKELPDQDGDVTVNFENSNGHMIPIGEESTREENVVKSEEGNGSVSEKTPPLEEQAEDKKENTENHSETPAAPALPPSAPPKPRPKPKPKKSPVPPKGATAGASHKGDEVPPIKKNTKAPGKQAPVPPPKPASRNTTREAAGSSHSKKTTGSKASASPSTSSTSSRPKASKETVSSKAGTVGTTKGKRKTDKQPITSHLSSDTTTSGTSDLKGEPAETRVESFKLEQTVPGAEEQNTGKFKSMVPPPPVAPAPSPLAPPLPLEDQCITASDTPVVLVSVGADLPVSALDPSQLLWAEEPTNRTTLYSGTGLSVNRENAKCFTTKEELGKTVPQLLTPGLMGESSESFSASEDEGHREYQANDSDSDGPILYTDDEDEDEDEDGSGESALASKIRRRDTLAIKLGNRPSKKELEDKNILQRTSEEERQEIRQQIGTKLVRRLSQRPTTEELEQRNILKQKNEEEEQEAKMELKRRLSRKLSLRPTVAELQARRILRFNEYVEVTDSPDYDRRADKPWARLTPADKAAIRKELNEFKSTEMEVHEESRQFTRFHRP
# UniProt O75928, whole entry, looked up: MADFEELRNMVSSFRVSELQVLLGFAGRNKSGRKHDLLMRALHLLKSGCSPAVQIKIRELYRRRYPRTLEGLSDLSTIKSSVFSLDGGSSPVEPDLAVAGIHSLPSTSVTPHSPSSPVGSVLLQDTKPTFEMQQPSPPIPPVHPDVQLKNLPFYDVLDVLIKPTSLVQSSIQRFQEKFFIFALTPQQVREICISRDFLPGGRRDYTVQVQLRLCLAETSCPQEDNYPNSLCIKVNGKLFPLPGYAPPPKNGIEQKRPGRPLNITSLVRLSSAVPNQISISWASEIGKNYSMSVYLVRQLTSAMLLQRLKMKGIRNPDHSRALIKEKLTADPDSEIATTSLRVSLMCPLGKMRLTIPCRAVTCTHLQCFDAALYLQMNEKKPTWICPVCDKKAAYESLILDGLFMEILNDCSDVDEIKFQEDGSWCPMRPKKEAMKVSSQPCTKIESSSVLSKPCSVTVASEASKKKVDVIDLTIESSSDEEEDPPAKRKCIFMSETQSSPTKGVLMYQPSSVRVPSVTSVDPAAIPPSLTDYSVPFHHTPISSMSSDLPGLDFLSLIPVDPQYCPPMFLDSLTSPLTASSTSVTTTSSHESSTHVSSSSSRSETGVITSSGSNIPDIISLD
# UniProt Q99755: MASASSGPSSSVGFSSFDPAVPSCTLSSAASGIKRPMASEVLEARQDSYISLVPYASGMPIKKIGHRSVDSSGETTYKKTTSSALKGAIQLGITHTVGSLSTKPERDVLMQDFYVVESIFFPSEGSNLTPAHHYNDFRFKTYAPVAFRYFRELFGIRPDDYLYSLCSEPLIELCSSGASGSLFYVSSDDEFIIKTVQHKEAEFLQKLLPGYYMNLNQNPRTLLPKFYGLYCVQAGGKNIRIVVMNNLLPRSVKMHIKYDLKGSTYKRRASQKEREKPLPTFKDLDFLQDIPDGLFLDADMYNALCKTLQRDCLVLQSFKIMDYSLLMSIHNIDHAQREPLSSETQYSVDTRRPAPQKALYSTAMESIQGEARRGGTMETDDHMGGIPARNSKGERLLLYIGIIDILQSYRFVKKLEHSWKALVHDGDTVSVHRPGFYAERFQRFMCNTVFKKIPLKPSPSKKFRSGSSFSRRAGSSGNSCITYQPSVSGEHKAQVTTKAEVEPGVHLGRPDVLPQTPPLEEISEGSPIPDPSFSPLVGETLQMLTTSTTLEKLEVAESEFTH
# UniProt Q9C010: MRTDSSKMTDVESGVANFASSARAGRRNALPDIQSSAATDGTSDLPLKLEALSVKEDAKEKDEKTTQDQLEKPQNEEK
# UniProt O00443: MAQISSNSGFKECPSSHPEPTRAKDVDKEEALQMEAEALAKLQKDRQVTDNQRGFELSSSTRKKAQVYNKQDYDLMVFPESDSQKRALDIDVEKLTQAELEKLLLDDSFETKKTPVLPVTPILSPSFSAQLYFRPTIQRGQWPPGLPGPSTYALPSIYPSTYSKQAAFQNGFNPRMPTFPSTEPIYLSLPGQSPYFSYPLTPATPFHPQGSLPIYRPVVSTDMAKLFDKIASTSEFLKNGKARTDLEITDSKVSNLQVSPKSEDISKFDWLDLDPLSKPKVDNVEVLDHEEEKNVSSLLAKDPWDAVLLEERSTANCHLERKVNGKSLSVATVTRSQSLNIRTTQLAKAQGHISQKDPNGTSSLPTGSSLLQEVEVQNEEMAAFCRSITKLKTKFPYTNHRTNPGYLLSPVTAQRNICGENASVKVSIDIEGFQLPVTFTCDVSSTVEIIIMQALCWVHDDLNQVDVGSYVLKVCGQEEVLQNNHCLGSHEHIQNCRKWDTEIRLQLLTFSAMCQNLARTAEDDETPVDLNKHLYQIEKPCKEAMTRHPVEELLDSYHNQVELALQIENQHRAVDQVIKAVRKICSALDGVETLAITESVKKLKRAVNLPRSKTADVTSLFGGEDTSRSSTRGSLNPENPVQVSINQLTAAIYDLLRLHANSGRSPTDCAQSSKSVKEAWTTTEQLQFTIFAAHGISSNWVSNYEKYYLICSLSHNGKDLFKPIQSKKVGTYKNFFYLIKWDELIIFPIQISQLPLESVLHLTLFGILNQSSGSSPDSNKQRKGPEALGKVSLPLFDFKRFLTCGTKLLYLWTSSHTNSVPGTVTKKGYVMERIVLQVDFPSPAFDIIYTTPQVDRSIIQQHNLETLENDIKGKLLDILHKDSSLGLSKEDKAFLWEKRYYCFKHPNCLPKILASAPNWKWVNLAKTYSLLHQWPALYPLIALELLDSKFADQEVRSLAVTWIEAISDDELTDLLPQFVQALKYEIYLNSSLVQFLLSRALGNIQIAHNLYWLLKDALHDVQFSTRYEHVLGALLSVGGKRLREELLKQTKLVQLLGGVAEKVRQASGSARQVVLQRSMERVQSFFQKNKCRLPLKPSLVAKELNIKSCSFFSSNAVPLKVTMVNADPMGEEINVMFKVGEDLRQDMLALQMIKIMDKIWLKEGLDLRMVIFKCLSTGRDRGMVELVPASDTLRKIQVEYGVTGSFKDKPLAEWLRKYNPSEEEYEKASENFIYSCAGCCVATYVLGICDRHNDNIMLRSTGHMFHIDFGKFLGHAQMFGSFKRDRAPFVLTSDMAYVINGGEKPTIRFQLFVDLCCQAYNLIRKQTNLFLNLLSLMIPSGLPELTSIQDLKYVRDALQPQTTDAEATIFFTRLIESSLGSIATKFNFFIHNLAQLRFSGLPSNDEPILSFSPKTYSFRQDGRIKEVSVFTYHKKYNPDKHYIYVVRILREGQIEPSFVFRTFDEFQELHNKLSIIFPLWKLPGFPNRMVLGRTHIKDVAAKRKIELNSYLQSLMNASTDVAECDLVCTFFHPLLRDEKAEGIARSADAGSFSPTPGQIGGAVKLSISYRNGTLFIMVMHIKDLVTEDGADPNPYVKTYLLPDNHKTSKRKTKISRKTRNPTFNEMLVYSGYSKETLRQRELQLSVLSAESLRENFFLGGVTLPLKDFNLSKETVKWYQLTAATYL
# The list shows a part of the results.
# Legend:
# Experiment in all cases: log2 fold change, soluble protein after heating vs DMSO (PISA); higher = thermal stabilisation; K562 lysate, 10 uM; active = over 0.2 and 3.5 SD of the protein, either way, in both replicates (recomputed)
# [1] = compound: Cc1sc2c(c1C)C(c1ccc(Cl)cc1)=N[C@@H](CC(=O)OC(C)(C)C)c1nnc(C)n1-2
# Method in brief: (§1)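 K562 pellets were dounce-homogenised in PBS pH 7.4 with 1 mM MgCl2, and the crude extract at 1 mg/mL protein was treated with 10 μM compound for 30 min. Aliquots were heated for 3 min across 48°C-58°C, pooled, and brought to 0.5% NP-40 at 4°C; soluble protein was the supernatant after 21,000xg for 90 min. Soluble protein was quantified by TMTpro 16plex LC-MS/MS with channel sums equalised, and reported as log2 fold change in thermal stability against DMSO controls, with values from duplicates.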
# [2] = compound: c1ccc([C@@H]2C[C@H]2NC2CCNCC2)cc1
# Method in brief: as §1
# [3] = compound: C1=CC=C(C=C1)[C@H](COC2=CC3=C(C=C2)NC(=O)N3)NC(=O)C4=CC=CN(C4=O)CC5=CC(=C(C=C5)F)F
# Method in brief: as §1
# [4] = compound: CC1=C(SC2=C1C(=N[C@H](C3=NN=C(N32)C)CC(=O)N)C4=CC=C(C=C4)Cl)C
# Method in brief: as §1
# [5] = compound: CC1=C2C(=CC=C1)N=C(N(C2=O)C3=CC=CC=C3C)CN4C=NC5=C(N=CN=C54)N
# Method in brief: as §1
target,measurement,setting,value
PLAUR (UniProt Q03405),log2 fold change,[1],inactive: -0.117
same,log2 fold change,[2],inactive: 0.032
PIGX isoform 2 (UniProt Q8TBF5),log2 fold change,[3],inactive: 0.011
same,log2 fold change,[4],inactive: 0.022
same,log2 fold change,[1],inactive: -0.123
same,log2 fold change,[2],inactive: 0.011
PHETA1 isoform 4 (UniProt Q8N4B1),log2 fold change,[2],inactive: -0.012
PIAS4 (UniProt Q8N2W9),log2 fold change,[5],inactive: 0.058
same,log2 fold change,[1],inactive: -0.025
same,log2 fold change,[2],inactive: -0.103
PLEKHA8 (UniProt Q96JA3),log2 fold change,[1],inactive: -0.14
PHF8 (UniProt Q9UPP1),log2 fold change,[5],inactive: 0.044
same,log2 fold change,[2],inactive: -0.347
PGM1 isoform 2 (UniProt P36871),log2 fold change,[1],inactive: -0.095
PLEKHA2 (UniProt Q9HB19),log2 fold change,[3],inactive: -0.036
same,log2 fold change,[4],inactive: 0.109
same,log2 fold change,[1],inactive: 0.178
same,log2 fold change,[2],inactive: -0.035
PIGL (UniProt Q9Y2B2),log2 fold change,[3],inactive: 0.024
same,log2 fold change,[4],inactive: 0.155
same,log2 fold change,[1],inactive: -0.009
PIM2 (UniProt Q9P1W9),log2 fold change,[1],inactive: -0.089
same,log2 fold change,[2],inactive: -0.092
PHC2 isoform 5 (UniProt Q8IXK0),log2 fold change,[5],inactive: 0.185
same,log2 fold change,[2],inactive: 0.012
PHLDA2 (UniProt Q53GA4),log2 fold change,[5],inactive: 0.333
same,log2 fold change,[1],inactive: 0.013
PIMREG (UniProt Q9BSJ6),log2 fold change,[3],inactive: 0.204
same,log2 fold change,[4],inactive: -0.145
same,log2 fold change,[2],inactive: -0.112
"PHGDH, A0A286YFE1",log2 fold change,[3],inactive: 0.061
same,log2 fold change,[4],inactive: -0.111
same,log2 fold change,[1],inactive: -0.095
PIGW (UniProt Q7Z7B1),log2 fold change,[5],inactive: 0.144
same,log2 fold change,[1],inactive: -0.021
PHKG1 isoform 2 (UniProt Q16816),log2 fold change,[5],inactive: -0.375
same,log2 fold change,[1],inactive: -0.054
same,log2 fold change,[2],inactive: -0.493
PIP5K1C isoform 3 (UniProt O60331),log2 fold change,[3],inactive: -0.031
same,log2 fold change,[4],inactive: 0.07
same,log2 fold change,[1],inactive: 0.045
PGK2 (UniProt P07205),log2 fold change,[5],inactive: -0.023
same,log2 fold change,[2],inactive: 0.067
PIGN (UniProt O95427),log2 fold change,[5],inactive: 0.057
same,log2 fold change,[1],inactive: 0.046
PKMYT1 (UniProt Q99640),log2 fold change,[5],inactive: 0.028
same,log2 fold change,[1],inactive: -0.037
same,log2 fold change,[2],inactive: 0.025
PLCG2 (UniProt P16885),log2 fold change,[3],inactive: -0.024
same,log2 fold change,[4],inactive: 0.056
same,log2 fold change,[5],inactive: 0.038
same,log2 fold change,[2],inactive: 0.234
"PIGBOS1, A0A0B4J2F0",log2 fold change,[2],inactive: 0.148
PHACTR2 isoform 4 (UniProt O75167),log2 fold change,[3],inactive: 0.025
same,log2 fold change,[4],inactive: 0.035
same,log2 fold change,[1],inactive: 0.036
same,log2 fold change,[2],inactive: -0.083
PIAS2 (UniProt O75928),log2 fold change,[5],inactive: 0.001
same,log2 fold change,[1],inactive: 0.046
PIP5K1A (UniProt Q99755),log2 fold change,[3],inactive: -0.058
same,log2 fold change,[4],inactive: 0.067
same,log2 fold change,[1],inactive: 0.059
same,log2 fold change,[2],inactive: -0.096
PLEC isoform 3 (UniProt Q15149),log2 fold change,[3],inactive: -0.08
same,log2 fold change,[4],inactive: 0.054
same,log2 fold change,[5],inactive: 0.123
same,log2 fold change,[2],inactive: 0.032
PKIB isoform 2 (UniProt Q9C010),log2 fold change,[2],inactive: -0.072
PKLR (UniProt F8W6W2),log2 fold change,[5],inactive: -0.08
PLEKHA3 (UniProt Q9HB20),log2 fold change,[1],inactive: 0.022
same,log2 fold change,[2],inactive: -0.305
PIK3C2A (UniProt O00443),log2 fold change,[3],inactive: 0.018
same,log2 fold change,[4],inactive: -0.031
same,log2 fold change,[1],inactive: 0.003
PLD6 (UniProt Q8N2A8),log2 fold change,[1],inactive: -0.213

# Quoted at random: 5 records from the list
target,measurement,setting,value
PIMREG (UniProt Q9BSJ6),log2 fold change,[4],inactive: -0.145
PLEKHA2 (UniProt Q9HB19),log2 fold change,[3],inactive: -0.036
PIAS4 (UniProt Q8N2W9),log2 fold change,[2],inactive: -0.103
PGM1 isoform 2 (UniProt P36871),log2 fold change,[1],inactive: -0.095
PLEKHA2 (UniProt Q9HB19),log2 fold change,[4],inactive: 0.109
